Data published in the supplement of paper PMC10849652.
The list shows a part of the results. Residues, ends and D or L forms follow the SMILES beside them. *: point of attachment. Cbz = O=C(OCc1ccccc1)*

Chains of the proteins cited; added tags and fusions are not shown. Lines headed by an entry give the natural chain unless they say otherwise; changes in a name come on top.
UniProt P41223: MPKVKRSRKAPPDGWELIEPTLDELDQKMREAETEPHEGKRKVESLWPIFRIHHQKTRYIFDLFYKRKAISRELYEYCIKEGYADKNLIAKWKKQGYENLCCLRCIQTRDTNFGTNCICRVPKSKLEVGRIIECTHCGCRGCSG
UniProt Q9Y2G2: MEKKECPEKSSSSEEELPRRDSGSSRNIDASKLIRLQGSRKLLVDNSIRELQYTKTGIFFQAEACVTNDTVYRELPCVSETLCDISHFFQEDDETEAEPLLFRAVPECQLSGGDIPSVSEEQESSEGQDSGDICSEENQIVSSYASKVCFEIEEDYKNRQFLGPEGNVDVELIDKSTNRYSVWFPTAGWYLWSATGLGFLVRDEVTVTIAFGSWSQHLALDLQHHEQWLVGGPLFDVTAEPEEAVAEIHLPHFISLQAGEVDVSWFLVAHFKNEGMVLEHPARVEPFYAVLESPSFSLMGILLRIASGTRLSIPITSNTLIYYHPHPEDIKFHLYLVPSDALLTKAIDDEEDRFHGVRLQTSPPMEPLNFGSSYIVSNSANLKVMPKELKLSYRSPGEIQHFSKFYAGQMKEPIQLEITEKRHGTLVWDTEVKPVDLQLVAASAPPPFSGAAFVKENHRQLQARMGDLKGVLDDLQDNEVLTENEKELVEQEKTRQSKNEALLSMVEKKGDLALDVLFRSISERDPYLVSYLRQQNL
UniProt Q8N999, whole entry, looked up: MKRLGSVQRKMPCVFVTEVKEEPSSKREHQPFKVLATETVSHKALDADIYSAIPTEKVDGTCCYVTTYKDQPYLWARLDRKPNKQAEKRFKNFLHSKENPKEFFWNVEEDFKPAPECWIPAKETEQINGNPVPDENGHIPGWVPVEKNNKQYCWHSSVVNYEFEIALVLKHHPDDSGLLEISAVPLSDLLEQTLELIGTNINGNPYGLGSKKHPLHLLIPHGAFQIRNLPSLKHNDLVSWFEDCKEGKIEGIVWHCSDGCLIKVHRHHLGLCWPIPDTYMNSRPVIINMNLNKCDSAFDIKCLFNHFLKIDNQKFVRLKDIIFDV
UniProt Q9NZ63: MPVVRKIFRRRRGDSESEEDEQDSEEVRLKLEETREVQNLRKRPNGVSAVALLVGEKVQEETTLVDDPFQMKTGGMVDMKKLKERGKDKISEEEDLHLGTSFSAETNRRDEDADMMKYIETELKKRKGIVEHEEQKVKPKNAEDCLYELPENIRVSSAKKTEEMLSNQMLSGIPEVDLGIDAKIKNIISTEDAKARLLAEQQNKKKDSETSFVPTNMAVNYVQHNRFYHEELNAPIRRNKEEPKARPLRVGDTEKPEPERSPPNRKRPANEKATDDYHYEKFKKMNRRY
UniProt Q8IXQ3: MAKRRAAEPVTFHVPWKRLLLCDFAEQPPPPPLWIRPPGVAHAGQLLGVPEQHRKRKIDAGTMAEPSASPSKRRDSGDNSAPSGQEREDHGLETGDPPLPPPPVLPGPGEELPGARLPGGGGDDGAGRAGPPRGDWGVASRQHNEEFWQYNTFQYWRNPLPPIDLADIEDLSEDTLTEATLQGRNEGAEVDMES
UniProt Q86YS7: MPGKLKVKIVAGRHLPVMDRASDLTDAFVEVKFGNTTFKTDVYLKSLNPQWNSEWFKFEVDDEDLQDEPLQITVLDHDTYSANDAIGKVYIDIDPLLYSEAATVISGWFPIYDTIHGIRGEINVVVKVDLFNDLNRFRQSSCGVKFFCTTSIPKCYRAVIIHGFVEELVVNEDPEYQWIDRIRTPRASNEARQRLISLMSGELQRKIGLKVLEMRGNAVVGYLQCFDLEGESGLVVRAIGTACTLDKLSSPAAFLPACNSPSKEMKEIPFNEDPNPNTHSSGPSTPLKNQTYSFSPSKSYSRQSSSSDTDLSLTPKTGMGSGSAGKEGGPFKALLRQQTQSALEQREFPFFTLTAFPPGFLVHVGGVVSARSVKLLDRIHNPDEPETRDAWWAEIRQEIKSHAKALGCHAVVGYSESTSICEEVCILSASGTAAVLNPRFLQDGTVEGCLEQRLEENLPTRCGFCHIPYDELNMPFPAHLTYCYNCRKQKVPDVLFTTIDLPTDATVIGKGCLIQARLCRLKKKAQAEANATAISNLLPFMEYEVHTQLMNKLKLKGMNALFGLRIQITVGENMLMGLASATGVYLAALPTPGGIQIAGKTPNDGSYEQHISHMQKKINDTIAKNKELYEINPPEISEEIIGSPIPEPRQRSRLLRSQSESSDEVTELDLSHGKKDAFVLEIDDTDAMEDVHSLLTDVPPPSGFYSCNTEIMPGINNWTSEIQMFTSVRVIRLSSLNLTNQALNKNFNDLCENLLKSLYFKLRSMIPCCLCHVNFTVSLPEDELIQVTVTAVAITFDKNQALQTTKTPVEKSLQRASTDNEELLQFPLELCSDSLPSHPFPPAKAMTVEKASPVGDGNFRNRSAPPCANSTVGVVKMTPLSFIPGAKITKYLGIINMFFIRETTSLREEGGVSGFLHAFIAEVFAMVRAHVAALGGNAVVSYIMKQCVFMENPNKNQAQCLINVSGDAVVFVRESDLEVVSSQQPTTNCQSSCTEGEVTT
UniProt Q8N1Q1: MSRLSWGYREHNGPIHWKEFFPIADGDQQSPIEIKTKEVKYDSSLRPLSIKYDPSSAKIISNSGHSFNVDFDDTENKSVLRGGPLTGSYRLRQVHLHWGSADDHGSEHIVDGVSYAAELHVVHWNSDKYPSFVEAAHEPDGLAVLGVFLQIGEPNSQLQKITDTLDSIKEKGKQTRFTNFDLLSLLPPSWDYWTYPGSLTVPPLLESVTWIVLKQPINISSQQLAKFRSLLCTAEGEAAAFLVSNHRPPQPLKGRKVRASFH
UniProt Q9BSJ5: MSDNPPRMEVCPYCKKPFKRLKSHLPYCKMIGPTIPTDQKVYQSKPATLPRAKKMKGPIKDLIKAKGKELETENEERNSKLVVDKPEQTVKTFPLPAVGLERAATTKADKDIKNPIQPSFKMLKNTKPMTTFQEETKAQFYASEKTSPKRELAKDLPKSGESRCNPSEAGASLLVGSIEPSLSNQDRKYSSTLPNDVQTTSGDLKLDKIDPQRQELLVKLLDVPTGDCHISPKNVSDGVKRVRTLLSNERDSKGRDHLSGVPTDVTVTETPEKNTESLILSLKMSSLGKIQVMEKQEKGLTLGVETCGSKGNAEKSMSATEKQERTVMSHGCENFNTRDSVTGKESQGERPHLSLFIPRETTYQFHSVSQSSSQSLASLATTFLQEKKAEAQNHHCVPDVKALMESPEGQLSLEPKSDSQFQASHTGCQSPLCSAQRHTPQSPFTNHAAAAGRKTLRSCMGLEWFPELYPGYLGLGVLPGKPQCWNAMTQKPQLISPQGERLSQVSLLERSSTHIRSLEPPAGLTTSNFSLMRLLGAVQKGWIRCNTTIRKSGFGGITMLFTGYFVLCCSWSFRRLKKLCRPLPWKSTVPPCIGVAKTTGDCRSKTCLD
UniProt Q8IYL3: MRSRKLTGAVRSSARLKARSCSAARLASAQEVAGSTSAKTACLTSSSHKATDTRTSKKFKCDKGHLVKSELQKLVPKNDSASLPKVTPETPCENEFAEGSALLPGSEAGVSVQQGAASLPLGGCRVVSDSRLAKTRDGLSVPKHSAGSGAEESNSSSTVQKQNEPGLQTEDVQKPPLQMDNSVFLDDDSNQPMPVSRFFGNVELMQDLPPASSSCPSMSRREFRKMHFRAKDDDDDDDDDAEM
UniProt P40121: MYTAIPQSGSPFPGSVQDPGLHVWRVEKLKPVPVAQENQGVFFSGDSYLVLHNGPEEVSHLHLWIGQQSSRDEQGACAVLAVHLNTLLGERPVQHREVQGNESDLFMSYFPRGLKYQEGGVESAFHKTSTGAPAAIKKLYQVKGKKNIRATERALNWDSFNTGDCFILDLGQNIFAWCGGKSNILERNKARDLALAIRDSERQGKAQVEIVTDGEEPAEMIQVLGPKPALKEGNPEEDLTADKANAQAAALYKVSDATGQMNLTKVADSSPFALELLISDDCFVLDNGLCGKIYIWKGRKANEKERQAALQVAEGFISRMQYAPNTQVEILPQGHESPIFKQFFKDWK
UniProt Q86VP6: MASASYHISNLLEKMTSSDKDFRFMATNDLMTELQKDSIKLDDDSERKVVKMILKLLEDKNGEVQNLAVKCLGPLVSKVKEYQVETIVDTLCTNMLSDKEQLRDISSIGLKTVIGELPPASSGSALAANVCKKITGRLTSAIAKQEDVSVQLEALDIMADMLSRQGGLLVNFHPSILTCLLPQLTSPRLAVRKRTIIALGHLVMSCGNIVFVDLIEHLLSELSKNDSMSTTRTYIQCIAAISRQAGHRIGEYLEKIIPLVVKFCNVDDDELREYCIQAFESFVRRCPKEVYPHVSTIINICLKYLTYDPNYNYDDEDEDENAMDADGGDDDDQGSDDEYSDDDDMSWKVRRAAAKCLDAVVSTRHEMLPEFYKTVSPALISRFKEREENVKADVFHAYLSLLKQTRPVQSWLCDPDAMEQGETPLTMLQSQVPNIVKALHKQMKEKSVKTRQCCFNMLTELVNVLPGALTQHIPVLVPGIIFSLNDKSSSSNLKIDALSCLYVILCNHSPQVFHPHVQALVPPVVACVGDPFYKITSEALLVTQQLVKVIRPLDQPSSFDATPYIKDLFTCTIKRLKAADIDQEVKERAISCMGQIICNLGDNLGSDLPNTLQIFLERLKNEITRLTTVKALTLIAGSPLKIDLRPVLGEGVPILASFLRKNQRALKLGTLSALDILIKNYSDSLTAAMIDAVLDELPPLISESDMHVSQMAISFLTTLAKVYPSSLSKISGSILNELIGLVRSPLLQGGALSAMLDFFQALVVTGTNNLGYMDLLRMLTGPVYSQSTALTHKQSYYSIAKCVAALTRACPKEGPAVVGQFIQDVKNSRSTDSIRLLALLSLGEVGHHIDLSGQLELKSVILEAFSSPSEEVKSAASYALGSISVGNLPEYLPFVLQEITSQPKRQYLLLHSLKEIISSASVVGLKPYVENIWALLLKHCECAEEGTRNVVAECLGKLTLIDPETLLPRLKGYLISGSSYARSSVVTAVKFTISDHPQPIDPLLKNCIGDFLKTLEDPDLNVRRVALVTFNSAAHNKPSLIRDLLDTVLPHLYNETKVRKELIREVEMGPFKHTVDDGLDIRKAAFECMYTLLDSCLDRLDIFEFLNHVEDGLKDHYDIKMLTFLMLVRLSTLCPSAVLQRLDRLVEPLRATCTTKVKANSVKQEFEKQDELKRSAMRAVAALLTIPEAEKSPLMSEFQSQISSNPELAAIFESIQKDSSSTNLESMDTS
UniProt O43852: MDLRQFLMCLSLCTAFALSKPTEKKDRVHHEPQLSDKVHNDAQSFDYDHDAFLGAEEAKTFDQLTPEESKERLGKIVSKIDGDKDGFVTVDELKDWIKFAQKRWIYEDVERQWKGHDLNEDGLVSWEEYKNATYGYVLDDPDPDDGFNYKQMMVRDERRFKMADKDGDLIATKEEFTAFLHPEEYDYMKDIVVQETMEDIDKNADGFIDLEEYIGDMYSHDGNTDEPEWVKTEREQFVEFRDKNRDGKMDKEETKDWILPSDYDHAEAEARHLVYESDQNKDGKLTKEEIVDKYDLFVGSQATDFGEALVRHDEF
UniProt P07384: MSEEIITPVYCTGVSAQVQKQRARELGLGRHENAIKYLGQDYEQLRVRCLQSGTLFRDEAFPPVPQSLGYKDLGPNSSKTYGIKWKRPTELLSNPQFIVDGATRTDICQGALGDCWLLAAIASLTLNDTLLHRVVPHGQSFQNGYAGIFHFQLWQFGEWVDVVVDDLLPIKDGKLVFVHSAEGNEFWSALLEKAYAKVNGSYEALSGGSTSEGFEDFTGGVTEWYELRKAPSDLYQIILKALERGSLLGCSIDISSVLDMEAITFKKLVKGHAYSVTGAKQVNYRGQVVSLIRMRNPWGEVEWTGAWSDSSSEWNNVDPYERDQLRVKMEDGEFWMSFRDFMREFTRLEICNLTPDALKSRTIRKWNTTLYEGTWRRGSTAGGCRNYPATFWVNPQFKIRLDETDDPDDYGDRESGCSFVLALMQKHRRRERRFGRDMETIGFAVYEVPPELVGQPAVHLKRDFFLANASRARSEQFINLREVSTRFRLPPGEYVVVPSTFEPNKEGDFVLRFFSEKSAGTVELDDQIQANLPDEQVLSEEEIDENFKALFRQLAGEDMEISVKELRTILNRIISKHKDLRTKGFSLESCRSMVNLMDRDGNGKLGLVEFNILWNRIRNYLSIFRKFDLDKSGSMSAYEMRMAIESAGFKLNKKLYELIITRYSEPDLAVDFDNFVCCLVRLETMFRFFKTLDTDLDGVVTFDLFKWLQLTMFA

Columns and labels:
Experiment in all cases: log2 fold change, soluble protein after heating vs DMSO (PISA); higher = thermal stabilisation; K562 cells, 10 uM, 30 min; active = over 0.2 and 3.5 SD of the protein, either way, in both replicates (recomputed)
erlotinib = compound: C#Cc1cccc(Nc2ncnc3cc(OCCOC)c(OCCOC)cc23)c1 [erlotinib]
Procedure, shortened: (§1)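 K562 cells at 2×10^6 cells/mL were treated for 30 min with 10 μM compound, and aliquots were heated for 3 min over 48°C-58°C before pooling. Extraction used PBS with 0.5% NP-40 at 4°C, and soluble protein was the supernatant after 21,000xg for 90 min, measured by TMTpro 16plex LC-MS/MS with channel sums equalised. Thermal stability values, relative to control samples and from duplicates, are log2 fold changes.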

[1] = compound: C/C(=N\NC(=O)C1=CC(=CC=C1)S(=O)(=O)N2CCOCC2)/C3=C(C=CC(=C3)Cl)O
Procedure, shortened: as §1

[2] = compound: C1=CC(=C(C=C1Cl)C2=NC3=NC=CN=C3C(=N2)NC4=CC=NC=C4)F
Procedure, shortened: as §1

[3] = compound: C1=CC(=CC=C1C2=NC3=C(N2)C=C(C=C3)C(=O)N)OC4=CC=C(C=C4)Cl
Procedure, shortened: as §1

[4] = compound: C1=CC2=C(C=CC(=C2)/C=C\3/C(=O)NC(=NCC4=CC=CS4)S3)N=C1
Procedure, shortened: as §1

[5] = compound: C1=CC2=NC=CN=C2C=C1/C=C/3\C(=O)NC(=O)S3
Procedure, shortened: as §1

[6] = compound: C1=CC=C(C=C1)C2=NC(=C(N2)C3=CC=NC=C3)C4=CC(=C(C=C4)Cl)O
Procedure, shortened: as §1

[7] = compound: C1=CC=C2C(=C1)C3=NNC4=CC=CC(=C43)C2=O
Procedure, shortened: as §1

[8] = compound: C1CCN(C1)C(=O)NC2=CC=CC(=C2)NC3=NC=C(C(=N3)NCCC4=CN=CN4)Br
Procedure, shortened: as §1

[9] = compound: C1CN(CCC1(CC2=CC=C(C=C2)Cl)N)C3=NC=NC4=C3C=CN4
Procedure, shortened: as §1

IRAK-1-4 Inhibitor I = compound: C1COCCN1CCN2C3=CC=CC=C3N=C2NC(=O)C4=CC(=CC=C4)[N+](=O)[O-] [IRAK-1-4 Inhibitor I]
Procedure, shortened: as §1

ibrutinib = compound: C=CC(=O)N1CCC[C@@H](n2nc(-c3ccc(Oc4ccccc4)cc3)c3c(N)ncnc32)C1 [ibrutinib]
Procedure, shortened: as §1

[10] = compound: CC(=O)c1cnc2ccc(-c3cc(Cl)c(O)c(Cl)c3)nc2c1N[C@H]1CC[C@H](CN(C)C)CC1
Procedure, shortened: as §1

ralimetinib = compound: CC(C)(C)Cn1c(N)nc2ccc(-c3[nH]c(C(C)(C)C)nc3-c3ccc(F)cc3)nc21 [ralimetinib]
Procedure, shortened: as §1

[11] = compound: CC(C)(O)CC(=O)NCCn1ccc2ncnc(Nc3ccc(Oc4cccc(C(F)(F)F)c4)c(Cl)c3)c21
Procedure, shortened: as §1

[12] = compound: CC(C)C1=C2N=C(C=C(N2N=C1)NCC3=CC=CC=C3)NCCCCCCN
Procedure, shortened: as §1

[13] = compound: CC(C)C[C@@H](C=O)NC(=O)[C@H](CC(C)C)NC(=O)[C@H](CC(C)C)NC(=O)OCc1ccccc1
Procedure, shortened: as §1

pinometostat = compound: CC(C)N(C[C@H]1O[C@@H](n2cnc3c(N)ncnc32)[C@H](O)[C@@H]1O)[C@H]1C[C@@H](CCc2nc3cc(C(C)(C)C)ccc3[nH]2)C1 [pinometostat]
Procedure, shortened: as §1

[14] = compound: CC1=C(C(CC(=O)N1)C2=CC=C(C=C2)C(F)(F)F)C(=O)NC3=C(C=C4C(=C3)C=NN4)F
Procedure, shortened: as §1

[15] = compound: CC1=C(C2=C(C=C1)C(=O)C3=CC=CC=C3N2CCCN)C
Procedure, shortened: as §1

Measured: log2 fold change

BUD31 (UniProt P41223)
inactive: erlotinib -0.027 | [1] 0.084 | [2] 0.007 | [3] 0.026 | [4] -0.097 | [5] -0.003 | [6] 0.038 | [7] 0.007 | [8] -0.05 | [9] 0.077 | IRAK-1-4 Inhibitor I 0.062 | ibrutinib 0.015 | [10] 0.1 | ralimetinib 0.023 | [11] -0.028 | [12] 0.103 | [13] -0.03 | pinometostat -0.044 | [14] 0.022 | [15] 0.046

CARD8 isoform 5 (UniProt Q9Y2G2)
inactive: erlotinib 0.078 | [1] 0.016 | [2] 0.08 | [3] 0.077 | [4] 0.037 | [5] -0.145 | [6] -0.077 | [7] 0 | [8] -0.018 | [9] 0.04 | IRAK-1-4 Inhibitor I 0.032 | ibrutinib 0.11 | [10] -0.049 | ralimetinib 0.005 | [11] -0.055 | [12] 0.08 | [13] -0.011 | pinometostat -0.015 | [14] 0.06 | [15] -0.003

C12orf29 (UniProt Q8N999)
inactive: erlotinib 0.026 | [1] -0.14 | [2] 0.046 | [3] -0.002 | [4] 0.057 | [5] 0.043 | [6] -0.05 | [7] -0.075 | [8] 0.128 | [9] 0.05 | IRAK-1-4 Inhibitor I -0.041 | ibrutinib -0.011 | [10] -0.014 | ralimetinib -0.066 | [11] -0.033 | [12] -0.009 | [13] 0.078 | pinometostat 0.018 | [14] 0.037 | [15] -0.118

C9orf78 (UniProt Q9NZ63)
inactive: erlotinib 0.036 | [1] -0.022 | [2] 0.046 | [3] -0.001 | [4] -0.04 | [5] 0.034 | [6] 0.013 | [7] -0.031 | [8] 0.025 | [9] 0.032 | IRAK-1-4 Inhibitor I 0.058 | ibrutinib -0.01 | [10] 0.084 | ralimetinib -0.008 | [11] 0.007 | [12] 0.098 | [13] 0.001 | pinometostat -0.051 | [14] 0.016 | [15] -0.028

C9orf40 (UniProt Q8IXQ3)
inactive: erlotinib 0.033 | [1] -0.03 | [2] -0.078 | [3] 0.032 | [4] -0.189 | [5] -0.015 | [6] -0.041 | [7] -0.014 | [8] 0.013 | [9] -0.022 | IRAK-1-4 Inhibitor I 0.044 | ibrutinib 0.023 | [10] -0.018 | ralimetinib -0.015 | [11] 0.097 | [12] 0.013 | [13] 0.085 | pinometostat -0.057 | [14] 0.048 | [15] 0.149

C2CD5 isoform 4 (UniProt Q86YS7)
inactive: erlotinib 0.146 | [1] -0.161 | [2] -0.006 | [3] -0.075 | [4] 0.001 | [5] -0.077 | [6] 0.027 | [7] -0.014 | [8] -0.019 | [9] -0.06 | IRAK-1-4 Inhibitor I -0.015 | ibrutinib -0.029 | [10] 0 | ralimetinib 0.053 | [11] -0.065 | [12] 0.03 | [13] -0.039 | pinometostat 0.017 | [14] -0.084 | [15] 0.002

CA13 (UniProt Q8N1Q1)
inactive: erlotinib -0.004 | [1] 0.041 | [2] 0.048 | [3] -0.026 | [4] -0.033 | [5] 0.134 | [6] 0.07 | [7] 0.017 | [8] -0.14 | [9] -0.061 | IRAK-1-4 Inhibitor I 0.021 | ibrutinib -0.116 | [10] 0.087 | ralimetinib 0.023 | [11] -0.01 | [12] 0.113 | [13] 0.011 | pinometostat -0.145 | [14] 0.029 | [15] 0.049

C17orf80 (UniProt Q9BSJ5)
inactive: erlotinib -0.041 | [1] -0.083 | [2] 0.019 | [3] 0.104 | [4] 0.024 | [5] -0.069 | [6] -0.045 | [7] -0.084 | [8] 0.06 | [9] 0.002 | IRAK-1-4 Inhibitor I 0.038 | ibrutinib -0.009 | [10] 0.008 | ralimetinib -0.029 | [11] 0.069 | [12] 0.061 | [13] 0.092 | pinometostat 0.025 | [14] 0.079 | [15] -0.033

BTF3 (UniProt P20290)
inactive: erlotinib 0.006 | [1] 0.039 | [2] 0.006 | [3] -0.015 | [4] -0.095 | [5] -0.006 | [6] 0.014 | [7] 0.013 | [8] -0.013 | [9] 0.018 | IRAK-1-4 Inhibitor I 0.033 | ibrutinib -0.014 | [10] 0.009 | ralimetinib -0.052 | [11] 0.054 | [12] 0.051 | [13] -0.008 | pinometostat -0.055 | [14] 0.004 | [15] 0.001

C1orf174 (UniProt Q8IYL3)
inactive: erlotinib 0.049 | [1] 0.173 | [2] -0.06 | [3] 0 | [4] 0.067 | [5] -0.031 | [6] 0.13 | [7] 0.29 | [8] 0.046 | [9] 0.16 | IRAK-1-4 Inhibitor I 0.043 | ibrutinib 0.035 | [10] -0.312 | ralimetinib 0.06 | [11] 0.05 | [12] 0.106 | [13] 0.029 | pinometostat -0.002 | [14] -0.06 | [15] 0.102

CAPG (UniProt P40121)
inactive: erlotinib 0.001 | [1] 0.055 | [2] 0.071 | [3] -0.035 | [4] -0.017 | [5] 0.063 | [6] 0.038 | [7] 0.029 | [8] -0.047 | [9] -0.015 | IRAK-1-4 Inhibitor I -0.02 | ibrutinib -0.04 | [10] 0.053 | ralimetinib 0 | [11] -0.072 | [12] -0.077 | [13] -0.036 | pinometostat -0.014 | [14] -0.006 | [15] 0.016

CALM2 (UniProt P0DP24)
inactive: erlotinib -0.058 | [1] -0.018 | [2] 0.031 | [3] 0.001 | [4] -0.007 | [5] 0.026 | [6] 0.021 | [7] -0.031 | [8] -0.01 | [9] 0.033 | IRAK-1-4 Inhibitor I 0.064 | ibrutinib 0.038 | [10] 0.036 | ralimetinib 0.146 | [11] -0.021 | [12] 0.083 | [13] -0.008 | pinometostat -0.073 | [14] 0.002 | [15] 0.002

CAND1 (UniProt Q86VP6)
inactive: erlotinib 0.011 | [1] 0.009 | [2] 0.067 | [3] -0.006 | [4] -0.001 | [5] 0.002 | [6] 0.026 | [7] 0.003 | [8] 0 | [9] 0.05 | IRAK-1-4 Inhibitor I 0.043 | ibrutinib 0.033 | [10] 0.024 | ralimetinib -0.037 | [11] -0.026 | [12] 0.049 | [13] -0.06 | pinometostat -0.063 | [14] 0.026 | [15] -0.002

CALU isoform 3 (UniProt O43852)
inactive: erlotinib 0.012 | [1] -0.018 | [2] 0.029 | [3] -0.017 | [4] -0.027 | [5] 0.034 | [6] -0.046 | [7] -0.027 | [8] 0.049 | [9] 0.048 | IRAK-1-4 Inhibitor I 0.046 | ibrutinib -0.016 | [10] 0.01 | ralimetinib -0.037 | [11] 0.024 | [12] 0.068 | [13] -0.011 | pinometostat -0.026 | [14] 0.024 | [15] -0.052

CALU isoform 4 (UniProt O43852)
inactive: erlotinib 0.029 | [1] 0.015 | [2] 0.026 | [3] -0.043 | [4] -0.01 | [5] 0.048 | [6] -0.091 | [7] 0 | [8] 0.021 | [9] 0.032 | IRAK-1-4 Inhibitor I 0.081 | ibrutinib -0.024 | [10] 0.039 | ralimetinib -0.105 | [11] 0.057 | [12] 0.013 | [13] -0.034 | pinometostat -0.047 | [14] -0.019 | [15] -0.024

CAPN1 (UniProt P07384)
inactive: erlotinib 0.02 | [1] 0.033 | [2] 0.071 | [3] 0.019 | [4] -0.008 | [5] 0.012 | [6] -0.009 | [7] -0.025 | [8] -0.033 | [9] 0.056 | IRAK-1-4 Inhibitor I 0.032 | ibrutinib 0.035 | [10] 0.015 | ralimetinib -0.001 | [11] 0.009 | [12] 0.125 | [13] -0.022 | pinometostat -0.041 | [14] 0.01 | [15] 0.035

Two neighbouring records already listed, for reference:
CAND1 (UniProt Q86VP6)
inactive: erlotinib 0.011 | [1] 0.009 | [2] 0.067 | [3] -0.006 | [4] -0.001 | [5] 0.002 | [6] 0.026 | [7] 0.003 | [8] 0 | [9] 0.05 | IRAK-1-4 Inhibitor I 0.043 | ibrutinib 0.033 | [10] 0.024 | ralimetinib -0.037 | [11] -0.026 | [12] 0.049 | [13] -0.06 | pinometostat -0.063 | [14] 0.026 | [15] -0.002

CALU isoform 3 (UniProt O43852)
inactive: erlotinib 0.012 | [1] -0.018 | [2] 0.029 | [3] -0.017 | [4] -0.027 | [5] 0.034 | [6] -0.046 | [7] -0.027 | [8] 0.049 | [9] 0.048 | IRAK-1-4 Inhibitor I 0.046 | ibrutinib -0.016 | [10] 0.01 | ralimetinib -0.037 | [11] 0.024 | [12] 0.068 | [13] -0.011 | pinometostat -0.026 | [14] 0.024 | [15] -0.052
